These are yes or no findings as the source states them, for the method shown. A result given as binding can be weak or reduced; the word gives no strength. For some assays here: Tags and fused reporters may be left off the sequences shown.
Tests used:
[1] = target: T1, GST-Laf1 (S. cerevisiae) (UniProt Q03177); assay: pull-down; GST fusion (bait) and His6-tagged Lam fragment incubated 1 h at 4 °C, complexes on glutathione-agarose beads; binding buffer 81 mM NaCl, 4.5 mM KCl, 1.35 mM MgCl2, 0.09% Triton X-100, 0.1 mg/mL BSA, 20 mM HEPES pH 7.5; four washes; immunoblot (anti-His, anti-GST); both purified
T1 sequence: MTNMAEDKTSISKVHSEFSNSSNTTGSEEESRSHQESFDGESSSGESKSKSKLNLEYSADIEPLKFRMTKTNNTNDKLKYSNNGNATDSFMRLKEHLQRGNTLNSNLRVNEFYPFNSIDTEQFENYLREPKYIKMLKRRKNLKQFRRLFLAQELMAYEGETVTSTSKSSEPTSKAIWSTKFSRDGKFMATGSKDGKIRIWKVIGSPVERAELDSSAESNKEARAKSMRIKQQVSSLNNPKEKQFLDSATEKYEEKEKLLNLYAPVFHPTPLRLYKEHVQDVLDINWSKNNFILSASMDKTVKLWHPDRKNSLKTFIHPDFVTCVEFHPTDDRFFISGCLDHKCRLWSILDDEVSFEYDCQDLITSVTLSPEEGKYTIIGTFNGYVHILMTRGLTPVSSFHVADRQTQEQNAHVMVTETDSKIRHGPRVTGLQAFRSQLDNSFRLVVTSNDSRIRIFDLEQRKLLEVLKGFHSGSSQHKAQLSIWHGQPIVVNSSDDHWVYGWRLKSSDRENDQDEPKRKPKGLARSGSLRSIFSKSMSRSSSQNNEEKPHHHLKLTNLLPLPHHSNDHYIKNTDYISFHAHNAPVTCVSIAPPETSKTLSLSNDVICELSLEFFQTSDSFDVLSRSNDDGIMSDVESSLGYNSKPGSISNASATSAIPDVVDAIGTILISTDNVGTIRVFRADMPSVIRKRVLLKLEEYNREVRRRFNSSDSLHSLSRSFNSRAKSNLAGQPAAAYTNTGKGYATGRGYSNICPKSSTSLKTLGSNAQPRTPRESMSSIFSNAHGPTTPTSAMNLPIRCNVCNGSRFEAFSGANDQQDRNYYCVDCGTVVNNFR

The chains behind the UniProt entries cited, without tags or fusion partners. Where a name states a change or a piece, a line headed by the entry shows the natural chain unless it says otherwise. Residues count along the entry.
UniProt Q06681, residues 482-1259: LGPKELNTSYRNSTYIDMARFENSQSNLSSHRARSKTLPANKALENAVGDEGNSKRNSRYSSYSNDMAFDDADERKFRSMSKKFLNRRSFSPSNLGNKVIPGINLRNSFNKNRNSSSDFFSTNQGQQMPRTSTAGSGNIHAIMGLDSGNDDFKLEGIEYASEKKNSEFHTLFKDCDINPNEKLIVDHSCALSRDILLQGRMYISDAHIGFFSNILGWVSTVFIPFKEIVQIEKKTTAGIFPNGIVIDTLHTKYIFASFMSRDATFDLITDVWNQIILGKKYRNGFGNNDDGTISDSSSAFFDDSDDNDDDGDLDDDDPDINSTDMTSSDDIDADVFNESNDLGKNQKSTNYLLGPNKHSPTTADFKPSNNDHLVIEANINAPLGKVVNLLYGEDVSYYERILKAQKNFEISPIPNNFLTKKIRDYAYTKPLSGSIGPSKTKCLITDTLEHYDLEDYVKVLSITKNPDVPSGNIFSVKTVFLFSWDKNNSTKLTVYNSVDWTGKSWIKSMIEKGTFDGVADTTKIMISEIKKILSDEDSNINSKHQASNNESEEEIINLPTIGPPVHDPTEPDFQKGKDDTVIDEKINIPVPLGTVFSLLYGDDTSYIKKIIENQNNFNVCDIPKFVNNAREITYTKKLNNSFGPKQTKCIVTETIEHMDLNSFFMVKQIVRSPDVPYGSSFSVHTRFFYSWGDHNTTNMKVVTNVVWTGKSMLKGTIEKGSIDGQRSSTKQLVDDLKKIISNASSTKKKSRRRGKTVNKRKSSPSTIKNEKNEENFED

[2] = target: GST-Laf1(S709A S710A) (S. cerevisiae) (UniProt Q03177); assay: as above

Row | binding [1] | binding [2] | Substance
1 | binds |  | Lam2(482-1259; T518A L519A)-(His)6 (from UniProt Q06681) (domain or fragment)
2 |  | binds | Lam2(482–1259)-(His)6 (from UniProt Q06681 482-1259) (domain or fragment)

— publication PMC7760575
